## Results of single-concentration screens

Chains of the proteins cited; added tags and fusions are not shown. Residues count along the entry.
UniProt P9WPC5, whole entry: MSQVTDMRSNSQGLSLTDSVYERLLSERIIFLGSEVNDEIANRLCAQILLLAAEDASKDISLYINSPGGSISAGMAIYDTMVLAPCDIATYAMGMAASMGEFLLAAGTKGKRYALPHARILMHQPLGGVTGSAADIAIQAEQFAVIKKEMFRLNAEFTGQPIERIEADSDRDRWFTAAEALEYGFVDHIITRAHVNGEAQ
UniProt P9WPC3, whole entry partner: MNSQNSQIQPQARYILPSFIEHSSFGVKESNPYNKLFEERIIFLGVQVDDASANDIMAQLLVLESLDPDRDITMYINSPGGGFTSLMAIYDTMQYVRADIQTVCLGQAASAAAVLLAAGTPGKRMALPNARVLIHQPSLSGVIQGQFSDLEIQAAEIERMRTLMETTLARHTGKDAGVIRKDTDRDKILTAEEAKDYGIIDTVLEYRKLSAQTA
UniProt Q8IDJ8, 1-583: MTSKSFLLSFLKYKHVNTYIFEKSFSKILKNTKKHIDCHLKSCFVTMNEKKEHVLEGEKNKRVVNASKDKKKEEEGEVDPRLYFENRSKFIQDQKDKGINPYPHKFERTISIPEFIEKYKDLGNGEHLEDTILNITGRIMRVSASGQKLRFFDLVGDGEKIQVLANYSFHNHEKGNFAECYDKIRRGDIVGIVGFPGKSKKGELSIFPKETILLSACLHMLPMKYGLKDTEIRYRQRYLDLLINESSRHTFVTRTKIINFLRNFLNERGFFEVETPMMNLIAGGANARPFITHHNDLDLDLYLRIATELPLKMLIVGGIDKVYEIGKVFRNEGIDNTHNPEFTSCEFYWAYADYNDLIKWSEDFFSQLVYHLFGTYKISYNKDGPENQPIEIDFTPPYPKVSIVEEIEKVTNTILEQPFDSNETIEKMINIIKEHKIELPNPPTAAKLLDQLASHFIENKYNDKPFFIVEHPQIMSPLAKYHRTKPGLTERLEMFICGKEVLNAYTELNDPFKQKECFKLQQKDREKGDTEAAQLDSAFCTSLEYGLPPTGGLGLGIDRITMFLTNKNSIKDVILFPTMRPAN
UniProt P9WFT3, whole entry: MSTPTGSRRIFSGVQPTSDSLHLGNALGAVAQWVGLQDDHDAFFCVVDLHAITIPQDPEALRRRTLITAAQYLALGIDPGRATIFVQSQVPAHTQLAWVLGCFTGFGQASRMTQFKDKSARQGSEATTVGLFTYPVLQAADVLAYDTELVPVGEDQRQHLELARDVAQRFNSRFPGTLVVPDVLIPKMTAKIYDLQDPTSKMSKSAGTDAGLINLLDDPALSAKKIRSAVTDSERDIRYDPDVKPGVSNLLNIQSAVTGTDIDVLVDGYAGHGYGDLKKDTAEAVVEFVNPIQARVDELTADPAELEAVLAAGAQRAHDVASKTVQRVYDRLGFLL
UniProt A4I591, 1-473: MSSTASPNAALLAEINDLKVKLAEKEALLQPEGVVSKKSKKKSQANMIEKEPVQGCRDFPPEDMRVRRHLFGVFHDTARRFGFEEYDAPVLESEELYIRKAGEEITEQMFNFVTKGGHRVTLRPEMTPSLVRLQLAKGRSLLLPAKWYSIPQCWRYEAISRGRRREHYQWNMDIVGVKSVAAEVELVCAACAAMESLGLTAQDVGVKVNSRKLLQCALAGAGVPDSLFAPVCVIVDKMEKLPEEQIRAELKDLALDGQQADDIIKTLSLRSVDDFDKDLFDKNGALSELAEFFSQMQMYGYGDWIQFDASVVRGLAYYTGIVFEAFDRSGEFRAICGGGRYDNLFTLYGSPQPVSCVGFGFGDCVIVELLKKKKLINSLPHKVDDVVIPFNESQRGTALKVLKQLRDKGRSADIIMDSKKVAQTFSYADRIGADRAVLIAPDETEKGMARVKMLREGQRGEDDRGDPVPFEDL
UniProt Q4DA54, 1-478: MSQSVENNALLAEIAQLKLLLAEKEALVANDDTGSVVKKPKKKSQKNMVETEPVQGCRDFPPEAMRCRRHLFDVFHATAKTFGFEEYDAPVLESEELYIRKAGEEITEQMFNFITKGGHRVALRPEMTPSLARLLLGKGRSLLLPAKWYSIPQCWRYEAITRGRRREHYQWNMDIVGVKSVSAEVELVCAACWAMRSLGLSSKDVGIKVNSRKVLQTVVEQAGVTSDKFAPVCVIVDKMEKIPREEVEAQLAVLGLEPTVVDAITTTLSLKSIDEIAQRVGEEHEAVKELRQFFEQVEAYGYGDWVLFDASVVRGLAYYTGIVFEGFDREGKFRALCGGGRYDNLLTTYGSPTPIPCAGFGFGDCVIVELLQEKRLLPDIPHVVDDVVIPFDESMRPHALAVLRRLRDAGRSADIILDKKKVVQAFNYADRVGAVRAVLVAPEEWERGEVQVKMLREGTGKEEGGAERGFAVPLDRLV

From ChEMBL document CHEMBL3988442, “University of Dundee, Small-Polar-MMV Screening Library” (2021).

ClpP1P2: 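Protease assay of ClpP1P2, read by the AMC dye that it sets free. Target: ClpP1P2, Mycobacterium tuberculosis (UniProt P9WPC5 and UniProt P9WPC3). Concentration: 50 µM. Higher reads as stronger inhibition, judged from the few compounds that gave an IC50. Most other retested compounds had strongly negative values. About 69,000 compounds were tested under these conditions; 0.015% (about 10) showed 50% or more at least once.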
PfKRS1: 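Lysine-tRNA ligase, Plasmodium falciparum 3D7 (UniProt Q8IDJ8). Enzyme assay of the cytosolic lysyl-tRNA synthetase in 384-well plates, read by luminescence. Concentration: 30 µM. Higher reads as stronger inhibition, judged from the few compounds that gave an IC50. Size under these conditions: about 69,000 compounds, about 49 of them at 50% or above in at least one test.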
MtTrpRS: 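Enzyme assay of tryptophanyl-tRNA synthetase; the read-out is not stated. Target: Tryptophan-tRNA ligase, Mycobacterium tuberculosis (UniProt P9WFT3). Tested at 10 µM. Direction is not recorded; retested compounds ran higher, which suggests that high means inhibition. About 65,000 compounds were tested under these conditions; 0.098% (about 64) showed 50% or more at least once.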
LiHisRS: 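Histidine-tRNA ligase, Leishmania infantum (UniProt A4I591). Enzyme assay of histidyl-tRNA synthetase; the read-out is not stated. Concentration: 30 µM. The record gives no direction; compounds that gave an IC50 in retests scored well above the rest, so higher reads as stronger inhibition. The assay is labelled LdHisRS but filed under L. infantum. Size under these conditions: about 69,000 compounds, about 410 of them at 50% or above in at least one test.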
TcHisRS: 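Histidine-tRNA ligase, Trypanosoma cruzi CL Brener (UniProt Q4DA54). Enzyme assay of histidyl-tRNA synthetase; the read-out is not stated. Compounds at 30 µM. Direction is inferred from retests: higher values go with stronger inhibition. Size under these conditions: about 69,000 compounds, about 31 of them at 50% or above in at least one test.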
Leishmania in macrophages: 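Cell assay of Leishmania donovani living inside macrophages; the read-out is not stated. Tested at 30 µM. The record gives no direction; compounds that gave an IC50 in retests scored well above the rest, so higher reads as stronger inhibition. Size under these conditions: about 69,000 compounds, about 1,000 of them at 50% or above in at least one test.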

Results are given as percent effect.
How 0% and 100% were set is not recorded. Most values in the screen are low, and negative values occur.
Compounds were drawn at random from those tested, without regard to their results.
Two or more numbers in one place are separate tests of the same structure; such repeats can differ widely.
A dash means the value is not listed here; it may have been measured.

| structure | ClpP1P2 | PfKRS1 | MtTrpRS | LiHisRS | TcHisRS | Leishmania in macrophages |
|---|---|---|---|---|---|---|
| `CC(C)c1cc(C(=O)NCCn2nc3ccccn3c2=O)n[nH]1` | -17.47 | 2.527 | 1.484 | 9.434 | -1.667 | -0.1818 |
| `Cc1nccc(N[C@H]2CN(C(=O)CCN3CCCC3=O)C[C@@H]2C(C)C)n1` | -10.07 | 0.6862 | -0.4454 | 9.756 | 0.4808 | 25.1 |
| `COc1cccc(S(=O)(=O)NC(=O)CC2CCCO2)c1` (stereo unspecified) | 3.389 | -2.728 | 9.445 | 3.478 | 1.149 | -17.39 |
| `CC[C@H](C)[C@@H](CO)NC(C)Cc1ccc(F)cc1` (stereo partly specified) | -4.684 | -0.9077 | 5.433 | 12.24 | 4 | -10.51 |
| `CN(Cc1nnc2n1CCC2)C(=O)c1ccc(=O)n(C)n1` | -14.27 | 3.891 | -0.8081 | 11.29 | 1.02 | 24.55 |
| `Cc1ccc(N2CCC3(CC2)COCCN(c2nccs2)C3)nn1` | 21.2 | 3.155 | -0.2945 | 58.51 | 62.31 | - |
| `CCn1nc(C)cc1C(=O)N1C[C@@H]2C[C@@H](c3nc(C)cs3)O[C@@H]2C1` | -5.556 | 4.475 | - | 7.692 | 12.85 | - |
| `O=C(c1ccco1)N(c1ccc(F)cn1)C1CCOCC1` | -1.295 | -2.486 | 7.366 | -9.859 | 3.185 | -24.96 |
| `CN(C)c1ncccc1CN1CCOC(C(=O)Nc2ccccc2)C1` (stereo unspecified) | -15.32 | 1.772 | - | 12 | 6.742 | 1.75 |
| `O=C(O)C(F)(F)F.[H][C@@]12OCCN(C(C)=O)[C@@]1([H])CC[C@H]2OCCCn1cccn1` | - | - | - | - | - | 4.433 |
| `CCC(=O)N1CCN(S(=O)(=O)c2cccc(F)c2)[C@H]2CS(=O)(=O)C[C@H]21` | 2.732 | 4.329 | -4.562 | 17.95 | -8.046 | - |
| `COC(=O)[C@@H]1Cc2ncn(C)c2CN1S(=O)(=O)c1ccc(Cl)cc1` | -13.31 | -6.093 | 5.721 | 24.32 | -5.473 | 0.203 |
| `[H][C@]12CC[C@]([H])(CN(C3Cc4ccccc4C3)C1)N(C(=O)CO)C2` | - | - | - | - | - | 13.33 |
| `COc1ccccc1OC1CCN(C(=O)CCCN2CCOCC2)CC1` | -6.66 | 5.41 | -5.236 | 7.018 | 2.186 | 28.63 |
| `O=C(c1cocn1)N1CC[C@H]2OCC[C@@]2(COc2ncccc2F)C1` | 0.8775 | 4.895 | -6.882 | 22.37 | 4.348 | - |
| `[H][C@@]12C[C@H](c3nnc(C)o3)O[C@@]1([H])CCN(Cc1cc(C)on1)C2` | - | - | - | - | - | 55.35 |
| `Cc1cnc(C(C)(C)NC(=O)NCc2ccc(C#N)cc2F)s1` | -0.9343 | 8.152 | -1.574 | 14.04 | 5.882 | 20.86 |
| `[H][C@@]12CC[C@H](Oc3ccccc3Cl)[C@]1([H])CN(C(=O)COCCOC)C2` | - | - | - | - | - | -0.9703 and 1.651 |
| `O=C(O)C(F)(F)F.O=C(c1ccncc1F)N1Cc2nc(COCC3CC3)oc2C1` | - | - | - | - | - | 27.94 |
| `O=C(c1cccs1)N1C[C@H]2CC[C@@]3(N=C(c4ccccc4)NC3=O)[C@H]2C1` | 13.24 | 3.174 | -1.574 | 12.26 | 1.674 | - |
| `N#Cc1ccc(NCCS(=O)(=O)N2CCc3ccccc32)nc1` | 7.798 | -4.367 | 3.799 | 17.12 | 5 | -22.66 |
| `Cc1nc(C)n(CC(=O)N2CCc3ncc(Cl)cc3C2)n1` | -14.18 | 2.465 | -0.8696 | 5.263 | 3.731 | 0.1072 and 7.48 |
| `CC(C)c1cc(NC(=O)c2ccc([S+]([O-])C(C)C)cc2)[nH]n1` (stereo unspecified) | -5.91 | 0.101 | -17.82 | 8.696 | 5.172 | 33.29 |
| `Cc1ccc(CNC(=O)CN2CCOC(Cn3cncn3)C2)s1` (stereo unspecified) | -16.91 | 2.032 | -3.993 | 6.897 | 0 | 21.75 |
| `O=C(NCC(F)F)c1ccc(S(=O)(=O)NCCc2ccncc2)cc1` | -5.319 | 4.165 | 2.899 | 9.836 | 8.8 | -15.22 |
| `O=C(c1ccc(-c2ccc(O)nc2)s1)N1CCCCCC1` | -3.819 | 2.437 | 2.591 | 15.52 | 1.739 | 19.86 |
| `COCC1CCCN(CCCc2cccc(OC)c2)C1` (stereo unspecified) | -1.952 | 1.798 | 3.306 | -3.226 | 4.545 | 7.74 |
| `Cc1nc(CN2C(=O)COC3(CCN(Cc4ccco4)CC3)C2C)cs1.O=C(O)C(F)(F)F` (stereo unspecified) | - | - | - | - | - | 0.959 |
| `Cn1cnc2c1CCN(CCS(=O)(=O)c1ccc(Cl)cc1)C2` | -22.15 | -0.2616 | 1.251 | 12.07 | 5.65 | 45.66 |
| `CCS(=O)(=O)N1C[C@H]2CN(Cc3cccc(C)c3)C(=O)[C@H]2C1` | -7.097 | 4.938 | -0.6785 | 9.589 | 3 | - |
| `COCCN1CCC2(CC1)CN(C(C)=O)c1ccc(C)cc12.O=C(O)C(F)(F)F` | - | - | - | - | - | 18.51 |
| `Cc1ccc(C(=O)N2CCC(Oc3ccccc3)CC2)c(=O)[nH]1` | -11.97 | -2.057 | 18.02 | 0 | 1.775 | 12.56 |
| `Cc1ncc2c(n1)CCN(C(=O)Cc1c(C)noc1C)C2` | -6.863 | -0.4069 | 3.216 | 19.7 | -1.515 | -1.8 |
| `CCc1nsc(N2CCc3sccc3C2)n1` | -4.489 | 1.838 | -7.405 | 12.07 | 0.5236 | 7.365 |
| `COC(=O)CNC(=O)c1ccc(OC2CCN(S(C)(=O)=O)CC2)c(Cl)c1` | -7.639 | -0.7197 | 1.754 | 6.061 | 1.058 | 10.12 |
| `O=C(CC(SC1CCCCC1)C(=O)O)c1ccc(Br)cc1` (stereo unspecified) | -18.32 | 7.602 | -5.289 | 6.25 | 3.125 | 11.37 |
| `CCOC(=O)C1CCN(c2nccc(-n3nc(C)cc3C)n2)CC1` | -11.27 | 2.242 | 4.595 | 18.68 | 6.931 | 24.33 |
| `CS(=O)(=O)c1ccc(Cl)c(NC(=O)NCCC2=CCCCC2)c1` | 9.023 | 3.105 | -3.307 | 14.67 | 3.704 | 7.458 |
| `CN(C)C(=O)CN1C(=O)CO[C@@H]2CN(c3ccccn3)C[C@H]21` | 1.624 | 0.2171 | -2.928 | 18 | 1.149 | - |
| `O=C(O)C(F)(F)F.O=C(O)C(F)(F)F.[H][C@@]12CN(CCOC)CC[C@]1([H])CN(Cc1cccnc1OC)C2` | - | - | - | - | - | 55.04 |
| `Cn1ncc2c(=O)[nH]c(CN3CCCc4cc(F)cc(F)c43)nc21` | 9.84 | 1.969 | -3.396 | 8.333 | 6.494 | -19.08 |
| `CC(C)CC(NC(=O)CN(C)c1cnccn1)c1cccs1` (stereo unspecified) | 0.8842 | 3.832 | -5.877 | 6.806 | 5.882 | 34.49 |
| `CCc1cc(N2CCN(c3ccc(Cl)cn3)CC2)n2nccc2n1` | -0.7655 | 2.959 | -0.6988 | 2.857 | 9.278 | -0.5536 |
| `CCCC(=O)N1CC[C@@H]2[C@H](CC1)N(Cc1cccnc1)CCS2(=O)=O` | 2.268 | 2.348 | -0.1876 | 17.31 | 2.674 | - |
| `CC(C)CNC(=O)C1CC(=O)N(c2n[nH]c3ccccc23)C1` (stereo unspecified) | 11.15 | 0.6546 | -1.751 | 18.42 | -4.094 | -22.71 |
| `O=C(NC1CCCCC1)c1nnc2ccc(N3CCOCC3)cc2n1` | 16.1 | 4.367 | 0.9067 | 13.79 | 5.217 | -33.36 |
| `OCCOCCN1CCCC1c1nc2cc(F)ccc2[nH]1` (stereo unspecified) | 6.778 | -4.608 | -1.069 | 13.33 | -0.8264 | 12.86 |
| `[H][C@@]12C[C@H](C(=O)N(C)C)[C@@]([H])(CN(c3ncccn3)C1)O2` | - | - | - | - | - | 19.06 |
| `COc1ccccc1N1CCN(C(=O)Cn2nccc2C)CC1(C)C` | -2.055 | -1.06 | 0.7498 | 25 | 5.319 | 30.57 |
| `CCc1ccccc1-c1cc(C)nc(N)n1` | -7.31 | -1.473 | -0.3221 | 14.75 | 5.6 | -16.71 |
| `CN1CCOC(CNCc2csc(C3CCCC3)n2)C1` (stereo unspecified) | -5.528 | -1.853 | -1.595 | -59.62 | -20 | 13.96 |
| `CC(C)N(C)Cc1cncc2c1CCN(CC(=O)N(C)C)C2` | 0.8578 | -1.377 | - | 3.96 | 4.523 | - |
| `Cc1cnc(C)c(N2CCCC(CC3CC3)(C(=O)O)C2)n1` (stereo unspecified) | -7.776 | 4.632 | 0.7991 | 2.083 | 3.797 | 6.254 |
| `COCC1CN(c2ccc(C)nn2)Cc2cnn(CC3CCOCC3)c21` (stereo unspecified) | 0.7387 | 1.686 | - | 15.09 | 2.222 | - |
| `CC1CCN(S(=O)(=O)NCC2CCOc3ccccc3C2)CC1` (stereo unspecified) | -8.416 | 4.684 | 4.722 | 17.92 | 5.021 | 4.601 |
| `CC(C)c1nc(C2CCCN2CC(=O)N2CCNC2=O)no1` (stereo unspecified) | 0.6176 | -3.068 | 0.3145 | 16.8 | 0.3802 | 9.584 |
| `CS(=O)(=O)N1CCC(C(=O)NC(Cc2ccsc2)c2ccccn2)CC1` (stereo unspecified) | -9.986 | 5.718 | -0.2508 | 16.67 | 1.622 | 2.42 |

For reference, 7 entries once more:

structure,ClpP1P2,PfKRS1,MtTrpRS,LiHisRS,TcHisRS,Leishmania in macrophages
O=C(c1ccc(-c2ccc(O)nc2)s1)N1CCCCCC1,-3.819,2.437,2.591,15.52,1.739,19.86
O=C(O)C(F)(F)F.O=C(c1ccncc1F)N1Cc2nc(COCC3CC3)oc2C1,-,-,-,-,-,27.94
O=C(CC(SC1CCCCC1)C(=O)O)c1ccc(Br)cc1 (stereo unspecified),-18.32,7.602,-5.289,6.25,3.125,11.37
O=C(NCC(F)F)c1ccc(S(=O)(=O)NCCc2ccncc2)cc1,-5.319,4.165,2.899,9.836,8.8,-15.22
COCC1CN(c2ccc(C)nn2)Cc2cnn(CC3CCOCC3)c21 (stereo unspecified),0.7387,1.686,-,15.09,2.222,-
CN1CCOC(CNCc2csc(C3CCCC3)n2)C1 (stereo unspecified),-5.528,-1.853,-1.595,-59.62,-20,13.96
Cc1nccc(N[C@H]2CN(C(=O)CCN3CCCC3=O)C[C@@H]2C(C)C)n1,-10.07,0.6862,-0.4454,9.756,0.4808,25.1